In experiment [1] the target is endogenous STIM1 (stromal interaction molecule 1) of mouse primary skeletal myotubes (mouse (endogenous in mouse primary skeletal myotubes)) (UniProt P70302). Description: co-IP; lysate of transfected mouse primary skeletal myotubes (80 or 100 µg of total protein); precipitated with anti-STIM1 or anti-DHPR antibody; blotted with anti-DHPR, anti-STIM1 or anti-GFP (for CFP-R429C).

Protein sequences, listed by entry. Tags and fused reporters are not part of them. Lines headed by an entry give the natural chain unless they say otherwise; changes in a name come on top. Chains listed by the source or under a name are the forms on record and can include a tag or linker. Residues count along the entry.
UniProt P70302, residues 23-685: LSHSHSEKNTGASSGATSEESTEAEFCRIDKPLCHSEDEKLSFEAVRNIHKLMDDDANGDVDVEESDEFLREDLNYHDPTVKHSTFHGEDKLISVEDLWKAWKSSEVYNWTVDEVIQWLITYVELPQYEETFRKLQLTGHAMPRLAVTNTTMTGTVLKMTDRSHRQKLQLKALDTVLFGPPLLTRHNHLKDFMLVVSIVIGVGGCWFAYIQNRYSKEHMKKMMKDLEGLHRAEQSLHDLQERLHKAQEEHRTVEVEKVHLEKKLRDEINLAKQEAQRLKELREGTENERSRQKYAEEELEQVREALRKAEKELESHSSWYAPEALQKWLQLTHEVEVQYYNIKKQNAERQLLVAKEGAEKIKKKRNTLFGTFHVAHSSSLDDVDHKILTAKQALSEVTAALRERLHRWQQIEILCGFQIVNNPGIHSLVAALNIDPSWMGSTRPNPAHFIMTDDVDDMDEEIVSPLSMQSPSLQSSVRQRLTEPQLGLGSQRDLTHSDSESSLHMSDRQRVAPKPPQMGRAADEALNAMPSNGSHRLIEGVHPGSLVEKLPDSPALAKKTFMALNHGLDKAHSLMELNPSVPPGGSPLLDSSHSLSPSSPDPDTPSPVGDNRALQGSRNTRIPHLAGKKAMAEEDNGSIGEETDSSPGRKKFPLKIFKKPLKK
UniProt Q02789: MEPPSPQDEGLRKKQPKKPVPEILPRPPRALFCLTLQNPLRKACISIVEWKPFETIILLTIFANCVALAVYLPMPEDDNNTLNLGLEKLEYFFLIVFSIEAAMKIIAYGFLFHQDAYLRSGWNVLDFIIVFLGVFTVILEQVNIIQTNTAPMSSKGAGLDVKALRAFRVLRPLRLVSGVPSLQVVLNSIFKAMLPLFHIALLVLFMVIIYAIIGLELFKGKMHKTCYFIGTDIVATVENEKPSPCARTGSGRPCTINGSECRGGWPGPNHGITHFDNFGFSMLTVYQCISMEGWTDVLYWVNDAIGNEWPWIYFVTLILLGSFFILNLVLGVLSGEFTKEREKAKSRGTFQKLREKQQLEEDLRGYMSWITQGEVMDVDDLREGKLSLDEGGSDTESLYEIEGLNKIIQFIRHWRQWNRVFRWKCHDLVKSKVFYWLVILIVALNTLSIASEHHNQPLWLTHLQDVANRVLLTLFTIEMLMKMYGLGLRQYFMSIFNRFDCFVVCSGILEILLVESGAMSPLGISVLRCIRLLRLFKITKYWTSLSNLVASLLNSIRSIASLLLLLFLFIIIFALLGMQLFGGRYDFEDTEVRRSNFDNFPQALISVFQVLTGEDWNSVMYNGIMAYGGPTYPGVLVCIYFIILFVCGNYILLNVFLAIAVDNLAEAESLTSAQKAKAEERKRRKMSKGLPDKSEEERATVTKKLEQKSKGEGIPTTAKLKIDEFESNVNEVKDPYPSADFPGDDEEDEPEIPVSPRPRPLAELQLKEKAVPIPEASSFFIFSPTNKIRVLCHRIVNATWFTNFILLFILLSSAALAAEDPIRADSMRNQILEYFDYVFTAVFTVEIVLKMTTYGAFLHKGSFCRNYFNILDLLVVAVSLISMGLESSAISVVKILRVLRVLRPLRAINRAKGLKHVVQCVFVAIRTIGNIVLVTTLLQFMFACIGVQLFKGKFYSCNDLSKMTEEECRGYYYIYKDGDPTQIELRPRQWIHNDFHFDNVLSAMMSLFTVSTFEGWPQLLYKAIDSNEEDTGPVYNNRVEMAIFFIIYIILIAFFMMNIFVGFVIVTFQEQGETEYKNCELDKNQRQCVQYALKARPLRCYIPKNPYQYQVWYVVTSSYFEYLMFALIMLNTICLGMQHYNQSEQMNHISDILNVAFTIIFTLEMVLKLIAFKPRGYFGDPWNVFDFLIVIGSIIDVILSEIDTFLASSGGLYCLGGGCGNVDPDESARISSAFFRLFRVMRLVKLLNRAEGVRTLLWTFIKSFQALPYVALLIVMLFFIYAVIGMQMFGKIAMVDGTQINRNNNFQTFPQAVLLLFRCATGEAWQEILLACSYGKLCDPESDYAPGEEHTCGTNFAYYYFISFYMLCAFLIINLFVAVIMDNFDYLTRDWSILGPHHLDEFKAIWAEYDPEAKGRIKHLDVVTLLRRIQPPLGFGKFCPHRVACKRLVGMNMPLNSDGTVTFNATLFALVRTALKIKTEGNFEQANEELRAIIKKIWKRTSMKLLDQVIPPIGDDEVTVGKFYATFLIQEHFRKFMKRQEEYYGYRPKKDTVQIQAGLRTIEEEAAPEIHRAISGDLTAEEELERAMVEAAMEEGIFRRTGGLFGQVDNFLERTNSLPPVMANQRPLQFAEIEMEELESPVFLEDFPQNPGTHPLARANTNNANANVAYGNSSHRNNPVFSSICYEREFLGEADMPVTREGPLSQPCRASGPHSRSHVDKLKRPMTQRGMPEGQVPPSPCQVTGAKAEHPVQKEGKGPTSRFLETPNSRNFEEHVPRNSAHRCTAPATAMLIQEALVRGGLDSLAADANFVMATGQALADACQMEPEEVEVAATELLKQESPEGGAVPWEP
CFP-R429C (human STIM1 mutant R429C, CFP-tagged) (Q13586-1, form named): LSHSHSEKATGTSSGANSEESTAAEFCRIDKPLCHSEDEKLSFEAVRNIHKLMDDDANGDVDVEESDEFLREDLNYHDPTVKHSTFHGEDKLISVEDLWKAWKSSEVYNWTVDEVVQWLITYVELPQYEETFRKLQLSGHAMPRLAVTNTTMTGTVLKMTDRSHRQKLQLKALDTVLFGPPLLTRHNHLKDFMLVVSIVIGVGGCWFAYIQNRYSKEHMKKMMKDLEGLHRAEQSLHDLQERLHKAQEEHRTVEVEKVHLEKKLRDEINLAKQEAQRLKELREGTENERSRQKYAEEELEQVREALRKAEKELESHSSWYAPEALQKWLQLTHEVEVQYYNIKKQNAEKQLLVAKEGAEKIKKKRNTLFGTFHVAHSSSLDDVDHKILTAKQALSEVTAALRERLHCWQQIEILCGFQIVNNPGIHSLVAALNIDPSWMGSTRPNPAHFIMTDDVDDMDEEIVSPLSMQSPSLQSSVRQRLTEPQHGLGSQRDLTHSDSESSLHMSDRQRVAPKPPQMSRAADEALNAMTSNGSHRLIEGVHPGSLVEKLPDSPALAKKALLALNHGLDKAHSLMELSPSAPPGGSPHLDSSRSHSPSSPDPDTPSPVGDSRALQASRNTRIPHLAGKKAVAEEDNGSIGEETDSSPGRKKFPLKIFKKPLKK

In experiment [2] the target is dihydropyridine receptor (DHPR, voltage-gated Ca2+ channel Cav1.1) (mouse (endogenous in mouse primary skeletal myotubes)) (UniProt Q02789). The experiment is described as above.

These are yes or no findings as the source states them, for the method shown. Binding seen in cells or lysates may run through a third protein. Some binding calls cover weakened binding; strength is not graded here.

For “CFP-R429C (human STIM1 mutant R429C, CFP-tagged) (from UniProt Q13586-1 23-685)”, the binding result in experiment [1] is given as “binds”; in experiment [2], “no binding”.

These data come from publication PMC6915709.
